This note sets out measurements from PubChem BioAssay AID248 (DTP/NCI, 2004).

In this assay the test system is L1210 leukemia ip in BDF1 mice, survival T/C. Description: NCI In Vivo Anticancer Drug Screen. Data for tumor model L1210 Leukemia (intraperitoneal) in B6D2F1 (BDF1) mice. The following applies: T/C endpoint: mean survival time, higher T/C = longer survival.
Where [1] appears, read: dose: 400.0 mg/kg/injection, schedule: Q01DX009 (ip), vehicle: Klucel (hydroxypropylcellulose) (HPC).
Setting [2] is: dose: 400.0 mg/kg/injection, schedule: Q04DX003 (ip), vehicle: saline.
Setting [3] is: dose: 100.0 mg/kg/injection, schedule: Q01DX001 (ip), vehicle: other.
Setting [4] is: dose: 200.0 mg/kg/injection, schedule: Q04DX003 (ip), vehicle: saline with Tween-80.
Where [5] appears, read: dose: 200.0 mg/kg/injection, schedule: Q04DX003 (ip), vehicle: saline.
Setting [6] is: dose: 100.0 mg/kg/injection, schedule: Q01DX009 (ip), vehicle: saline.

The list shows only some results of the screen, not a fair sample: it is rich in T/C values a quarter to a half above the control, in often repeated tests (any T/C) and in doses without a T/C. Other doses and runs of a compound stand elsewhere. T/C: endpoint of the treated group in % of that of the vehicle group. Some doses have a count of surviving animals in place of a T/C: the source holds a T/C of zero for them, seemingly a mark for toxic or unscored doses. Some doses without a T/C left all or most animals alive at the check, yet need not have been tolerated: survival well below the control is almost never listed, so the zero probably covers shortened survival too. Survivors were counted at the toxicity check, usually on the fifth day, unless a day is given; later deaths do not show. Schedules are NCI's codes, read here as Q, the interval in days (D) or hours (H), X, the number of doses. Some entries were tested several times; their values stand side by side, smallest first. Some schedules carry Z or #; the key to these is not given. Where survival is the endpoint, this PubChem deposit counts one and a half times the control or more as active, and values a quarter to a half above the control carry no call in these data; other NCI protocols may use other cut-offs.

`CSC1=NCCS1`: the survivor count (dose: 400.0 mg/kg/injection, schedule: Q01DX009 (ip), vehicle: carboxymethylcellulose (CMC)) is 0 of 6.

With `CCCCCCCCCCCC[N+]1(C)CC[N+](C)(CCCCCCCCCCCC)CC1` (centres undefined), the survivor count (dose: 400.0 mg/kg/injection, schedule: Q04DX002 (ip), vehicle: other) is listed as 3 of 3.

Regarding `C(=N\N(CCCCN(/N=C/c1ccccc1)c1ccccc1)c1ccccc1)/c1ccccc1`, the survivor count (dose: 100.0 mg/kg/injection, schedule: Q01DX009 (ip), vehicle: gum acacia) is recorded as 6 of 6.

As for `Cl/N=C(/c1ccccc1)c1ccc(Cl)cc1`, the survivor count (dose: 100.0 mg/kg/injection, schedule: Q01DX009 (ip), vehicle: Klucel (hydroxypropylcellulose) (HPC)) is reported as 6 of 6; the survivor count (dose: 200.0 mg/kg/injection, schedule: Q01DX009 (ip), vehicle: Klucel (hydroxypropylcellulose) (HPC)) is 6 of 6; the survivor count under setting [1] was 5 of 6.

With `CCOCC[n+]1ccc(C)cc1`, the survivor count under setting [2] is reported as 2 of 6.

With `O=NN(CCF)C(=O)NC1CC2CCC1C2` (centres undefined), under “dose: 11.5 mg/kg/injection, schedule: Q01DX001 (ip), vehicle: other”, the T/C was 125 % of control. In addition, the survivor count is, setting by setting: (dose: 37.0 mg/kg/injection, schedule: Q01DX001 (ip), vehicle: other) 2 of 10; (dose: 50.0 mg/kg/injection, schedule: Q01DX001 (ip), vehicle: other) 2 of 6; (dose: 56.0 mg/kg/injection, schedule: Q01DX001 (ip), vehicle: other) 0 of 10; (dose: 62.5 mg/kg/injection, schedule: Q01DX001 (ip), vehicle: other) 0 of 6; (dose: 75.0 mg/kg/injection, schedule: Q01DX001 (ip), vehicle: other) 0 of 6; (dose: 84.0 mg/kg/injection, schedule: Q01DX001 (ip), vehicle: other) 0 of 10 and 5 of 10. In addition, the survivor count was 0 of 6 (dose: 87.5 mg/kg/injection, schedule: Q01DX001 (ip), vehicle: other); 0 of 6 under setting [3]; 0 of 6 (dose: 125.0 mg/kg/injection, schedule: Q01DX001 (ip), vehicle: other); 0 of 10 and 5 of 10 (dose: 126.0 mg/kg/injection, schedule: Q01DX001 (ip), vehicle: other); 0 of 6 (dose: 150.0 mg/kg/injection, schedule: Q01DX001 (ip), vehicle: other); 0 of 6 (dose: 175.0 mg/kg/injection, schedule: Q01DX001 (ip), vehicle: other).

Take `Cc1ccc([N+](=O)[O-])cc1NC(=O)Nc1ccc(CCO)cc1`: the survivor count under setting [1] is recorded as 5 of 6.

Consider `CCNC(C)(C)C(SS)c1ccc(Br)cc1` (centres undefined), for which the survivor count is 2 of 6 (dose: 25.0 mg/kg/injection, schedule: Q01DX009 (ip), vehicle: water) and 3 of 6 (dose: 100.0 mg/kg/injection, schedule: Q01DX009 (ip), vehicle: water).

Turning to `CN1CNC(C=O)(CCc2ccc(Cl)cc2)C1` (centres undefined), the survivor count under setting [3] was 4 of 4.

Regarding `c1ccc2nc3nc4ccccc4nc3nc2c1`, the survivor count by setting is: (dose: 40.0 mg/kg/injection, schedule: Q04DX002 (ip), vehicle: gum acacia) 1 of 3; (dose: 75.0 mg/kg/injection, schedule: Q04DX002 (ip), vehicle: gum acacia) 0 of 3; (dose: 80.0 mg/kg/injection, schedule: Q04DX002 (ip), vehicle: gum acacia) 0 of 3; (dose: 150.0 mg/kg/injection, schedule: Q04DX002 (ip), vehicle: gum acacia) 0 of 3; (dose: 300.0 mg/kg/injection, schedule: Q04DX002 (ip), vehicle: gum acacia) 0 of 3.

On to `CC(CCF)C(N)C(=O)O` (centres undefined), for which the survivor count reads like this: (dose: 25.0 mg/kg/injection, schedule: Q01DX009 (ip), vehicle: saline) 2 of 6; (dose: 50.0 mg/kg/injection, schedule: Q01DX009 (ip), vehicle: saline) 0 of 6; (dose: 75.0 mg/kg/injection, schedule: Q01DX001 (ip), vehicle: saline) 0 of 6; (dose: 87.5 mg/kg/injection, schedule: Q01DX009 (ip), vehicle: saline) 0 of 6; (dose: 150.0 mg/kg/injection, schedule: Q01DX001 (ip), vehicle: saline) 0 of 6; (dose: 175.0 mg/kg/injection, schedule: Q01DX009 (ip), vehicle: saline) 0 of 6. The survivor count (dose: 350.0 mg/kg/injection, schedule: Q01DX009 (ip), vehicle: saline) is 0 of 6.

Take `N#CSCSC#N`: the survivor count is, setting by setting: (dose: 12.5 mg/kg/injection, schedule: Q04DX003 (ip), vehicle: saline with Tween-80) 4 of 6; (dose: 25.0 mg/kg/injection, schedule: Q04DX003 (ip), vehicle: saline with Tween-80) 0 of 6; (dose: 50.0 mg/kg/injection, schedule: Q04DX003 (ip), vehicle: saline with Tween-80) 0 of 6; (dose: 100.0 mg/kg/injection, schedule: Q04DX003 (ip), vehicle: saline with Tween-80) 0 of 6; under setting [4], 0 of 6; (dose: 400.0 mg/kg/injection, schedule: Q04DX003 (ip), vehicle: saline with Tween-80) 0 of 6.

Consider `COc1ccc(C2C3C=CC(C3)C2C(=O)O)cc1` (centres undefined), for which, under setting [4], the survivor count is given as 6 of 6.

On to `C1CC2CCC[N+]3=C2C(C1)CCC3` (centres undefined), for which the survivor count reads like this: (dose: 100.0 mg/kg/injection, schedule: Q04DX003 (ip), vehicle: saline) 0 of 6; under setting [5], 0 of 6; under setting [2], 0 of 6.

In the case of `O=c1[nH]cc(CC(F)(F)C(F)(F)F)c(=O)[nH]1`, the survivor count (dose: 100.0 mg/kg/injection, schedule: Q01DX005 (ip), vehicle: other) is given as 2 of 3 and the survivor count (dose: 200.0 mg/kg/injection, schedule: Q01DX005 (ip), vehicle: other) is 1 of 3.

As for `COP(=S)(OC)N(C)C`, the survivor count (dose: 300.0 mg/kg/injection, schedule: Q01DX001 (ip), vehicle: saline) is 1 of 6.

In the case of `CN(C)C(=Nc1ccc(NC(=O)c2ccc(C(=O)Nc3ccc(N=C(Nc4ccccc4)N(C)C)cc3)cc2)cc1)Nc1ccccc1`, the survivor count is 0 of 6 (dose: 25.0 mg/kg/injection, schedule: Q01DX Z (ip), vehicle: water); 0 of 6 (dose: 50.0 mg/kg/injection, schedule: Q01DX Z (ip), vehicle: water); 0 of 6 (dose: 100.0 mg/kg/injection, schedule: Q01DX Z (ip), vehicle: water).

Consider `CN1CCC(=C2c3ccccc3C=Cc3ccccc32)CC1`, for which the survivor count by setting is: (dose: 50.0 mg/kg/injection, schedule: Q04DX003 (ip), vehicle: saline) 4 of 4; under setting [6], 4 of 6; under setting [5], 0 of 4; under setting [2], 0 of 4.

Consider `COc1ccc(O)c(C(=O)c2cccc(OC)c2C#N)c1`, for which the survivor count (dose: 200.0 mg/kg/injection, schedule: Q04DX003 (ip), vehicle: carboxymethylcellulose (CMC)) is recorded as 4 of 6 and the survivor count (dose: 400.0 mg/kg/injection, schedule: Q04DX003 (ip), vehicle: carboxymethylcellulose (CMC)) is 6 of 6.

Turning to `CNC(=O)N1CC(C)OC(C)C1` (centres undefined), under setting [6], the survivor count is on record as 6 of 6.

As to `NC(=S)N/N=C/c1ccc(Cl)cc1Cl`, the survivor count reads like this: (dose: 100.0 mg/kg/injection, schedule: Q01DX001 (ip), vehicle: Klucel (hydroxypropylcellulose) (HPC)) 1 of 6; (dose: 200.0 mg/kg/injection, schedule: Q01DX001 (ip), vehicle: Klucel (hydroxypropylcellulose) (HPC)) 0 of 6; (dose: 400.0 mg/kg/injection, schedule: Q01DX001 (ip), vehicle: Klucel (hydroxypropylcellulose) (HPC)) 0 of 6.

For the compound `COc1cc([N+](=O)[O-])cc(C=O)c1O`, the survivor count reads like this: (dose: 200.0 mg/kg/injection, schedule: Q04DX003 (ip), vehicle: Klucel (hydroxypropylcellulose) (HPC)) 2 of 6; (dose: 400.0 mg/kg/injection, schedule: Q04DX003 (ip), vehicle: Klucel (hydroxypropylcellulose) (HPC)) 3 of 6.
